Measurements: PubChem BioAssay AID720504 (National Center for Advancing Translational Sciences (NCATS), 2013)
Hit rate of the full screen: of about 360,000 compounds, about 10,000 (2.8%) were called active. The inconclusive results got no clear call from the source; some entries with a clear call stand among them for comparison. The call rests on the fitted dose curve; in most records, active means well fitted inhibition curve with a large enough effect; inconclusive means small, poorly fitted or top-dose-only effect; inactive means flat fitted curve, though single readings scatter. Potencies beside an inconclusive call are fits to weak or partial responses and may not hold up.

By UniProt entry, the sequences of proteins in these tests, tags left out.
UniProt P53350, whole entry, looked up: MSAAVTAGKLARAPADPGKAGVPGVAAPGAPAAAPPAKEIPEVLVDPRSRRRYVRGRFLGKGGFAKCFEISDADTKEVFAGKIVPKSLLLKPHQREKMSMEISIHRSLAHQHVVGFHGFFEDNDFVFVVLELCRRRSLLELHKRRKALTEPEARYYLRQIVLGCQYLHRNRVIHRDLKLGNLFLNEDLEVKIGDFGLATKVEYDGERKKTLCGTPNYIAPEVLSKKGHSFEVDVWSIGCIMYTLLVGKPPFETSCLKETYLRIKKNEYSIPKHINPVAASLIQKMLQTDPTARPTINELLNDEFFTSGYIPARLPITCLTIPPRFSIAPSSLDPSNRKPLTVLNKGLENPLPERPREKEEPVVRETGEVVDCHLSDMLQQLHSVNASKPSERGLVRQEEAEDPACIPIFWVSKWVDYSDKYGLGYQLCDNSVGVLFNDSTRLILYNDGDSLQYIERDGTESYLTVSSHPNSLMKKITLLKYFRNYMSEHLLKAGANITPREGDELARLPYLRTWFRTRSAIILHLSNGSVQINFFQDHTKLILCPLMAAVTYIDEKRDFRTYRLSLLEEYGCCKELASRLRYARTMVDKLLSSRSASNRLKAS

Biological target: Serine/threonine-protein kinase PLK1 (Homo sapiens) (UniProt P53350)
Test: qHTS for Inhibitors of PLK1-PDB (polo-like kinase 1 - polo-box domain): Primary Screen; further: nearly all actives have a fitted effect of over 65% in size; on max response, negative = inhibition: series mostly up to about 57 µM
Details: Plk1 PBD binding of FITC phosphopeptide, fluorescence polarization
On the % scale 0 is the no-effect control and ±100 the full control effect; potency means the concentration at half of the fitted maximal effect.

| SMILES | max response, negative = inhibition | Potency |
| --- | --- | --- |
| CCN(CC)C(=O)C(=O)c1cn(CC(=O)N2CCc3ccccc3C2)c2ccccc12 | inactive: -9.01% | – |
| Cc1nc(Nc2ccc(Cl)c(Cl)c2)sc1C(=O)Nc1ccccc1 | – | active: 26.7 µM |
| Cc1cc(C)cc(-n2c(=O)c3ccccc3n(CC(=O)NCC3CCCO3)c2=O)c1 (stereo not given) | inactive: -9.29% | – |
| CC(C)Oc1ccc(-c2cc(C(=O)NCCN3CCOCC3)c3ccccc3n2)cc1 | – | inconclusive: 26.7 µM [inhibitor, single point] |
| O=C1C(Sc2ccccc2)=C[C@@]2(O)CC[C@@H](O)[C@]1(Sc1ccccc1)[C@H]2O | – | inconclusive: 8.44 µM [inhibitor, single point] |
| O=C(NCCc1ccc(F)cc1)c1cccc2c1C(=O)c1ccc(N3CCC(Cc4ccccc4)CC3)cc1S2(=O)=O | – | inconclusive: 21.2 µM [inhibitor, single point] |
| COc1ccc(S(=O)(=O)N2CCOCC2)cc1NC(=O)CCNC(=O)c1ccc(Br)cc1 | – | inconclusive: 26.7 µM [inhibitor, partial curve] |
| O=C(NCc1cccnc1)C1c2ccccc2C(=O)N1Cc1ccccc1 (stereo not given) | – | inconclusive: 29.9 µM [inhibitor, partial curve] |
| CSCC[C@H](NC(=O)COc1cc2c(c3oc(=O)c(C)c(C)c13)CCC(C)(C)O2)C(=O)O | – | active: 29.9 µM |
| O=C(O)c1cccc2c1-c1ccccc1/C2=N\Nc1ccccc1 | – | active: 37.7 µM |
| CCOc1ccc(NC(=O)CN2C(=O)/C(=C3\SC(=S)N(C4CCS(=O)(=O)C4)C3=O)c3ccccc32)cc1 (stereo not given) | – | inconclusive: 75.2 µM [inhibitor, partial curve] |
| Cc1ccc(C(=O)CSc2ccccn2)cc1 | – | active: 18.9 µM |
| OCCn1nc2c3ccccc3nc-2n(-c2ccccc2)c1=S | – | inconclusive: 29.9 µM [inhibitor, partial curve] |
| CC(=O)c1cccc2c(O)c(C3=Nc4ccccc4C3=O)[nH]c12 | – | inconclusive: 26.7 µM [inhibitor, partial curve] |
| O=C(CCN(CCO)Cc1ccccc1)Nc1ccc(Br)cc1 | inactive: -2.85% | – |
| Cc1ccc(/C=N/Nc2nc(C(C)(C)C)cs2)o1 | – | inconclusive: 21.2 µM [inhibitor, partial curve] |
| O=C(Nc1ccccn1)c1cccs1 | – | active: 3.36 µM |
| CC(=O)Nc1ccn(-c2ccccc2)n1 | – | inconclusive: 18.9 µM [inhibitor, partial curve] |
| CCOC(=O)C1=C(O)/C(=C/c2ccc(-c3ccccc3C(=O)O)o2)SC1=Nc1ccc(C)cc1 | – | inconclusive: 29.9 µM [inhibitor, partial curve] |
| Cc1ccc(NC(=O)CCCN2C(=O)c3cccc4cccc(c34)C2=O)cc1 | – | active: 26.7 µM |
| COc1ccc(Cl)cc1NC(=O)CSc1nc(-c2ccccc2)cc(=O)[nH]1 | – | inconclusive: 29.9 µM [inhibitor, partial curve] |
| CN(C(=O)COC(=O)COc1ccc2ccccc2c1)c1c(N)n(Cc2ccccc2)c(=O)[nH]c1=O | inactive: -5.97% | – |
| Cc1ccc(-c2csc3nc(SCC(=O)Nc4ccc(Cl)c(C(=O)O)c4)[nH]c(=O)c23)cc1 | – | inconclusive: 29.9 µM [inhibitor, partial curve] |

| SMILES | max response, negative = inhibition | Potency |
| --- | --- | --- |
| O=C(OCCN1CCCCC1)c1ccccc1F | inactive: 19.4% | – |
| COCCCNC(=O)c1ccc(Cn2c(=O)c3ccccc3n(Cc3ccccc3C)c2=O)cc1 | inactive: -0.304% | – |
| CC(O)CNCCCCOc1ccc(OCc2ccccc2)cc1 (stereo not given) | inactive: 3.62% | – |
| Cc1ccc(Nc2cc(C)nc(N3CCOCC3)n2)cc1 | – | inconclusive: 16.8 µM [inhibitor, partial curve] |
| CCC(=O)N1CCN(c2ccccc2NC(=O)COc2cccc(C)c2)CC1 | inactive: -7.07% | – |
| CCOC(=O)c1sc(=S)n(-c2ccc3c(c2)OCO3)c1N | – | active: 13.4 µM |
| C/C(=N\NC(=O)c1cc(O)cc(O)c1)c1ccc(NC(=O)Cc2ccccc2)cc1 | – | inconclusive: 21.2 µM [inhibitor, single point] |
| C[C@@H]1CN([C@H](C)CO)S(=O)(=O)c2ccc(C#Cc3ccccc3F)cc2O[C@@H]1CN(C)C(=O)Cc1ccccc1 | – | inconclusive: 5.97 µM [inhibitor, single point] |
| Cn1cc(P(=S)(N2CCOCC2)N2CCOCC2)cc1P(=S)(N1CCOCC1)N1CCOCC1 | – | inconclusive: 21.2 µM [inhibitor, partial curve] |
| Cc1ccccc1-n1c(N)c(C(=O)Nc2ccc(F)cc2)sc1=S | inconclusive: -24.6% [inhibitor] | – |
| COc1ccc(C(=O)Nc2nnc(-c3cccs3)s2)cc1 | inactive: -6.08% | – |
| O=C(Nc1nn[nH]n1)c1ccc(S(=O)(=O)N2CCCCC2)cc1 | inactive: -1.79% | – |
| COCCN(CCOC)Cc1cc(=O)oc2cc(C)c(Cl)cc12 | inactive: -14.8% | – |
| COc1ccc(Cc2nnc(Nc3ccccc3)s2)cc1Br | inactive: 0.308% | – |
| O=C(NC(NC(=S)Nc1c(Cl)cc(Cl)cc1Cl)C(Cl)(Cl)Cl)OCc1ccccc1 (stereo not given) | – | inconclusive: 23.8 µM [inhibitor, partial curve] |
| CCOC(=O)C1=C(C)N=C2SCCC(=O)N2C1c1ccc(C(=O)OC)cc1 (stereo not given) | – | inconclusive: 2.99 µM [inhibitor, partial curve] |
| Clc1cccc(Cc2c(-c3cccc(Br)c3)nc3ccc(Br)cn23)c1 | – | inconclusive: 37.7 µM [inhibitor, single point] |
| O=C(Nc1ccc2c(c1)OCO2)c1cc2ncc(Br)cn2n1 | – | active: 11.9 µM |
| N#Cc1cc([N+](=O)[O-])c(-n2nnc3ccccc32)c([N+](=O)[O-])c1 | – | active: 10.6 µM |
| CC(C)C(OC(=O)C1=Cc2ccccc2OC1)C(=O)NCC1CCCO1 (stereo not given) | – | active: 21.2 µM |
| CC(=O)Nc1ccc(S(=O)(=O)NNC(=O)COc2cccc(C)c2)cc1 | – | active: 23.8 µM |
| Cc1cc(-c2csc(NC(=O)C3=COCCO3)n2)c(C)n1C | – | inconclusive: 23.8 µM [inhibitor, single point] |

Three structures already listed, sorted by SMILES length, high to low:

| SMILES | max response, negative = inhibition | Potency |
| --- | --- | --- |
| CSCC[C@H](NC(=O)COc1cc2c(c3oc(=O)c(C)c(C)c13)CCC(C)(C)O2)C(=O)O | – | active: 29.9 µM |
| COCCCNC(=O)c1ccc(Cn2c(=O)c3ccccc3n(Cc3ccccc3C)c2=O)cc1 | inactive: -0.304% | – |
| Cc1ccc(/C=N/Nc2nc(C(C)(C)C)cs2)o1 | – | inconclusive: 21.2 µM [inhibitor, partial curve] |
